Source: patent publication US20250042987A1
Residue numbers refer to the chain shown, from its start. Results are given in words; binding and its absence hold for the method and conditions named. Some binding calls cover weakened binding; strength is not graded here.

Sequences of proteins named here, by UniProt entry; tags and fusion partners are left off. Residues count along the entry.
UniProt Q969D9, residues 29-159: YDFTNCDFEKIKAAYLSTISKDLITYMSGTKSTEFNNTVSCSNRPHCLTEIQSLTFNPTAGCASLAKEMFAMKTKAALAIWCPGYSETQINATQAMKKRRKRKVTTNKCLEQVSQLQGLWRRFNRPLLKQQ

B1: murine anti-TSLP monoclonal antibody MA-II (mouse IgG1 / mouse Ck) (antibody, V domains shown)
VH: QVKLQQSGAELVKPGASVKMSCKASGYTFTTYWMHWVKQRPGQGLEWIGVIDPSDSYITYNQKFKGKATLTVDTSSSTAYMQLSSLTSEDSAVYYCTRSLDGYFDYWGQGTLVTVSA
VL: DIVLTQSPASLSASVGETVTITCRASENIYSYLAWYQQKQGKSPQLLVYNAKTLAEGVPSRFSGSGSGTQFSLKINSLQPEDFGSYYCQHHYGTPWTFGGGTKLEIKA
B2: murine anti-TSLP monoclonal antibody MA-III (mouse IgG1 / mouse Ck) (antibody, V domains shown)
VH: B1 VH with K3Q, S7P, T31S, Y57D, I58T, A79V, Y106H
VL: B1 VL with L4M, E27G, Y30H, S31N, E56D, F71Y, H91F, Y92W, G93S
B3: murine anti-TSLP monoclonal antibody MA-IV (mouse IgG1 / mouse Ck) (antibody, V domains shown)
VH: B1 VH with Q5E, T31S, Y57D, I58T, Y106H
VL: DIVITQTPASLSASVGETVTITCRASGNIHNYLAWYQQKQGKSPQLLVYNTKTLADGVPSRFSGSGSGTQYSLKINSLQPEDFGSYYCQHFWSTPYTFGGGTKLEIKA

Biological target: human TSLP (thymic stromal lymphopoietin), made in-house (human) (UniProt Q969D9)
Experiment: ELISA, TSLP coated

binding, binds:
B1
B2
B3
